Taken from: PubChem BioAssay AID1259314 (Drosophila RNAi Screening Center, 2017)

- Purpose: 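Modifiers of manganese chloride toxicity in fly cells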 (primary screen)
- System: Drosophila S2R+ cells
- Reagents: long dsRNA against Drosophila genes
- Time to read-out: 5 days (4 days knock-down, then 1 day metal exposure)
- Treatment: manganese chloride added to 15 mM for 24 hours
- Detection: 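Luciferase ATP signal used as a proxy for viable cell number, reported as one averaged z-score per dsRNA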
- Direction: mean ATP z-score: higher = more ATP than the plate average, more viable cells under manganese
- Rule for the call: 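a mean ATP z-score past 1.5 in either direction is called active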
- Calls: active = strong ATP change, up or down; inactive = no strong ATP change
Shown is an unselected part of about 3,100 reagents. In the full data, 289 (9.3%) got an active call. 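Active includes both higher and lower ATP than plate average; check the z-score sign for direction.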 Reagents against one gene are numbered here. A plus sign joins genes that one reagent is predicted to hit. Not stated in the record: the amount of reagent.

gene | dsRNA no. | mean ATP z-score | Outcome
disp (dispatched) | 1 | -0.433 | inactive
disp (dispatched) | 2 | -0.343 | inactive
Mrp5 (Multidrug resistance protein 5) | 1 | -0.814 | inactive
Mrp5 (Multidrug resistance protein 5) | 2 | 1.31 | inactive
Mrp5 (Multidrug resistance protein 5) | 3 | -1.3 | inactive
mthl4 (methuselah-like 4) | 1 | 1.88 | active
CG10182 | 1 | -0.463 | inactive
Hmgcr (HMG Coenzyme A reductase) | 1 | 0.79 | inactive
CG7744 | 1 | 0.0649 | inactive
CG7744 | 2 | -1.22 | inactive
Ror | 1 | -0.343 | inactive
Ror | 2 | -0.205 | inactive
Ror | 3 | 0.0586 | inactive
CG32579 | 1 | -0.283 | inactive
CG32579 | 2 | 0.947 | inactive
Tpc2 | 1 | 0.33 | inactive
RYa-R (RYamide receptor) | 1 | 0.127 | inactive
CG9458 | 1 | 1.56 | active
Tollo | 1 | -0.899 | inactive
Tollo | 2 | 0.248 | inactive
Octalpha2R (alpha2-adrenergic-like octopamine receptor) | 1 | -0.582 | inactive
Octalpha2R (alpha2-adrenergic-like octopamine receptor) | 2 | -0.142 | inactive
ninaE (neither inactivation nor afterpotential E) | 1 | 0.967 | inactive
ninaE (neither inactivation nor afterpotential E) | 2 | -0.553 | inactive
Sh (Shaker) | 1 | -0.0935 | inactive
Sh (Shaker) | 2 | 1.91 | active
Sh (Shaker) | 3 | -0.0811 | inactive
O-fut1 (O-fucosyltransferase 1) | 1 | -1.47 | inactive
O-fut1 (O-fucosyltransferase 1) | 2 | 1.61 | active
CG30345 | 1 | -0.509 | inactive
CG30345 | 2 | 0.0952 | inactive
Ir7f (Ionotropic receptor 7f) | 1 | -0.249 | inactive
Lgr3 (Leucine-rich repeat-containing G protein-coupled receptor 3) | 1 | 0.0689 | inactive
Lgr3 (Leucine-rich repeat-containing G protein-coupled receptor 3) | 2 | 0.555 | inactive
unc-5 | 1 | 1.91 | active
unc-5 | 2 | -0.00243 | inactive
unc-5 | 3 | 0.223 | inactive
Or92a (Odorant receptor 92a) | 1 | 0.639 | inactive
rho-7 (rhomboid-7) | 1 | 0.904 | inactive
Tsp42Eq (Tetraspanin 42Eq) | 1 | 0.064 | inactive
ppk13 (pickpocket 13) | 1 | -0.844 | inactive
CG5687 | 1 | -1.36 | inactive
CG5687 | 2 | 0.0772 | inactive
pll (pelle) | 1 | 0.515 | inactive
pll (pelle) | 2 | 0.158 | inactive
Sec22 (Secretory 22) | 1 | 0.949 | inactive
Sec22 (Secretory 22) | 2 | 0.209 | inactive
COX4 (Cytochrome c oxidase subunit 4) | 1 | 0.146 | inactive
COX4 (Cytochrome c oxidase subunit 4) | 2 | -3.29 | active
CG7720 | 1 | -0.26 | inactive
CG7720 | 2 | 2.86 | active
CG31262 | 1 | -0.359 | inactive
CG31262 | 2 | -0.304 | inactive
lili (lilipod) | 1 | -0.449 | inactive
lili (lilipod) | 2 | 0.0757 | inactive
CG42542 | 1 | 0.762 | inactive
CG42542 | 2 | -0.0844 | inactive
Npc1a (Niemann-Pick type C-1a) | 1 | -0.461 | inactive
Npc1a (Niemann-Pick type C-1a) | 2 | -0.47 | inactive
schlank | 1 | -0.369 | inactive
Syngr (Synaptogyrin) | 1 | 0.791 | inactive
Syngr (Synaptogyrin) | 2 | -0.415 | inactive
PGRP-SC1a + PGRP-SC1b | 1 | 2.2 | active
Ir84a (Ionotropic receptor 84a) | 1 | -0.9 | inactive
Ir84a (Ionotropic receptor 84a) | 2 | -0.516 | inactive
rho-7 + CG34231 | 1 | 2.22 | active
Tmtc1 (Transmembrane O-mannosyltransferase targeting cadherins 1) | 1 | -0.39 | inactive
Tmtc1 (Transmembrane O-mannosyltransferase targeting cadherins 1) | 2 | 1.08 | inactive
Ir76b (Ionotropic receptor 76b) | 1 | 0.734 | inactive
Ir76b (Ionotropic receptor 76b) | 2 | -0.227 | inactive
Ten-m (Tenascin major) | 1 | -0.695 | inactive
Ten-m (Tenascin major) | 2 | -1.5 | inactive
cni (cornichon) | 1 | 0.377 | inactive
CG16781 | 1 | -0.459 | inactive
CG16781 | 2 | -0.304 | inactive

Reprinted from the listing for reference:
gene | dsRNA no. | mean ATP z-score | Outcome
pll (pelle) | 2 | 0.158 | inactive
Sec22 (Secretory 22) | 1 | 0.949 | inactive
Sec22 (Secretory 22) | 2 | 0.209 | inactive
COX4 (Cytochrome c oxidase subunit 4) | 1 | 0.146 | inactive
COX4 (Cytochrome c oxidase subunit 4) | 2 | -3.29 | active
CG7720 | 1 | -0.26 | inactive
CG7720 | 2 | 2.86 | active
CG31262 | 1 | -0.359 | inactive
CG31262 | 2 | -0.304 | inactive
lili (lilipod) | 1 | -0.449 | inactive
lili (lilipod) | 2 | 0.0757 | inactive
